The values that follow come from article PMC10163288.

The other results are listed elsewhere or left out.

Sequences and labels used below:
B1: il2ra_site2_2erj_normal_mot_HHH_b2_03093_af2_000000119_0001_18_34_H_._HHH_b2_06007_af2_0001_0000300012_0000001_0 (protein)
chain: SSSSSEEEEVEKLLKEVEELQKEGDEEKAEEVLRRAAELAWRINNFELFSEIAELLRKLGSSSSS
B2: il2ra_site1_1z92_normal_mot_74bb627b62bb877a56547cee6c7a6e54_0001_000000029_0001_1_13_H_._HHH_b1_02999_0001_0000400041_0000001_0 (protein)
chain: SSSSNEEYQLAVEIVSRLAAEFGLDWEQLKELDRLAAELVARGYSPEEIEEILEELAERLSSSSS
B3: il2ra_site1_3nfp_sap_11_mot_HHH_b1_07180_af2_000000260_0001_1_19_H_._HHH_b2_01685_af2_0001_0000200004_0000001_0_0001_af2pred_0001_af2pred (protein)
chain: SSSTSEEEARRMRELMELIRELSKRGDREVAKELFKLLAEALRKGDPEILEEALELARRRLSSSS
B4: il2ra_site1_3nfp_normal_mot_0eddeacbb14b769e73e254714f31e2f9_0001_af2_000000052_0001_37_51_H_._HHH_b2_01980_0001_0000100001_0000001_0 (protein)
chain: SSSSSSDEEEVERLLEEAKHIPDPREAAKLLHEAFRVAAETKNAELADLIYEVMREIISSSSSSS
B5: il2ra_site2_3nfp_sap_18_mot_HHH_b1_05606_000000030_0001_23_39_H_._f72021f8cb70fb76a13a12d6924f0047_0001_0001_0000200014_0000001_0_0001 (protein)
chain: SSSSDEEHFIEQLLAQAKFLVERLEDPEERERLEELIEELEREGDPRIAEELARLVSEIISSSSS
B6: il2ra_site1_2b5i_normal_mot_HHH_b1_02271_000000068_0001_1_16_H_._HHH_b1_04984_af2_0001_0000400034_0000001_0_af2pred_dldesign_0_af2pred (protein)
chain: SSSSSDPEAEVAALVARARALKAAGRVREALELLDEAAKLLDENDMEEKLAEVEALAKSLSSSSS
B7: il2ra_site2_3nfp_sap_19_mot_HHH_b1_06589_000000230_0001_37_50_H_._HHH_b1_05602_af2_0001_0000400008_0000001_0_0001 (protein)
chain: SSSSSDFKFEVAVEYAKAAIKLRNDPELLREVEELEEEYKEEGDPRYLEEILRIAAEMAHSSSSS
B8: il2ra_site1_1z92_sap_25_mot_HHH_b2_05274_af2_000000237_0001_23_40_H_._1ea7efed693413ff70a20a74b84a9d1c_0001_1_0001_0000200019_0000001_0_0001 (protein)
chain: DEEDEEEAEELAGGDPELEALILDALRTLKLGIPPKAIEIVLEDAAKRDGIPPEKVEEALRLAEP
B9: il2ra_site2_2erj_normal_mot_c2bf78bdce995293a161f7082e24b401_0001_af2_000000082_0001_17_32_H_._HHH_b1_07967_0001_0000400009_0000001_0 (protein)
chain: SSSSDWLERLYRLANELLHASHNRDEEEFEEVYEEIRRLVEESQSEAAREILELIQEEFEGSSSS
B10: il2ra_site2_2erj_normal_mot_HHH_b1_04373_af2_000000118_0001_18_33_H_._HHH_b2_02528_af2_0001_0000400022_0000001_0 (protein)
chain: SSSSSEEEERVRELLEEARELHEEGNLEEVYRLAVEALRIASENNDQELIELVAKVVRELSSSSS
B11: il2ra_site2_3nfp_sap_22_mot_HHH_b2_08245_000000023_0001_41_55_H_._HHH_b2_07283_0001_0000300027_0000001_0_0001 (protein)
chain: SSSSDVEERIEELLKEIEELLEKGDPEEAERLLLEVALLAWETGDFEAFAAVTRLLERVQSSSSS
B12: il2ra_site1_2b5i_normal_mot_HHH_b1_08075_000000186_0001_43_57_H_._HHH_b2_05789_0001_0000400011_0000001_0 (protein)
chain: SSSSSSRSELTKEALELLRKAQKIEDEEEVRELLEEALELAREGNTRSLVIMLETALEALSSSSS
B13: il2ra_site2_2erj_normal_mot_HHH_b2_00484_af2_000000139_0001_42_55_H_._HHH_b1_05539_af2_0001_0000300014_0000001_1 (protein)
chain: SSSSSEIELAAEASARAIELFLNGNPEEAERLLEEVLEELQELNNETAVRYVEHALRHIRESSSS
B14: il2ra_site1_2b5i_sap_4_mot_HHH_b1_04602_000000166_0001_1_19_H_._HHH_b1_05136_af2_0001_0000100001_0000001_0_0001_af2pred_dldesign_0_af2pred (protein)
chain: SSSSSSEAERIAEEAIEEAKKLKDVREALKLLEAAHKEVSALGDDEAADRIEEFAKELLKSSSSS
B15: il2ra_site2_2erj_sap_15_mot_ems_3hC_936_0002_000000155_0001_4_19_H_._HHH_b1_03120_0001_0000500021_0000001_0_0001 (protein)
chain: SSSSSEEEAQELYEEFEELLEKGDDHALSEVLARLMELAKKYRDELAHRLAWELLRLNLNSSSSS
B16: il2ra_site2_2erj_normal_mot_af86707857d369f3e1d85dcabc5f9321_0001_000000171_0001_14_29_H_._HHH_b2_02620_0001_0000200010_0000001_0_af2pred_0001_af2pred (protein)
chain: SSSSDLEEEVRRLLEEIEELIKRGDEEEALNLLLEAIELAAKANNEELLEEIARLARELQRSSSS
B17: il2ra_site2_3nfp_normal_mot_HHH_b2_07946_000000046_0001_20_36_H_._HHH_b2_02452_af2_0001_0000100002_0000001_0 (protein)
chain: SSSSSSEEEEERVEELLEEAKKIEDPEEVKKLLREATNLAYKLNNFELFALVADALSQLYSSSSS
B18: il2ra_site1_2b5i_sap_20_mot_HHH_b1_01934_af2_000000023_0001_42_56_H_._317e649a6280ec284eb7dfe5badee235_0001_af2_0001_0000600013_0000001_0_0001_af2pred_dldesign_ … (protein)
chain: SSSSSKEEIKKEAEELIEELKKKGYNLPLRILEFALKEIEETNSEKYYEQLKKLIEKIKKSSSSS
B19: il2ra_site2_2erj_normal_mot_39ed66e5fba071e4f274ea7f2cf018e6_0001_000000286_0001_17_31_H_._HHH_b2_03101_af2_0001_0000900014_0000001_0_af2pred_0001_af2pred (protein)
chain: SSSSDLEERLEETVEELVKEFNLSEEQKKLLEAIAELLLEAGFSEELAEEWLRRIAERLGSSSSS
B20: il2ra_site2_3nfp_sap_16_mot_HHH_b1_06613_af2_000000098_0001_23_40_H_._HHH_b2_05266_af2_0001_0000600014_0000001_1_0001 (protein)
chain: SSSSDEEAEELREEAEKAAEEGDPEEALELLLEAASIAWRLNDEELFAKISELAHEILRRRSSSS
B21: il2ra_site1_1z92_sap_12_mot_HHH_b1_08207_af2_000000294_0001_43_57_H_._495ec863fae791885bcf86a35e6e9113_0001_af2_0001_0000500015_0000001_0_0001_af2pred_0001_af2p … (protein)
chain: SSSSSLEHSLRLAVEILVKLAGLSEEQEKELEELVRELVERGVSFHEALRILSRLAHELLSSSSS
B22: il2ra_site2_3nfp_normal_mot_HHH_b2_06150_000000217_0001_39_53_H_._HHH_b1_06048_0001_0001100050_0000001_0 (protein)
chain: SSSSDEEEESERLVERLEELLKEGDEERFKKVLQEATHFAFETRDSELFFLLAELLFRIESSSSS
B23: il2ra_site1_3nfp_normal_mot_HHH_b2_02342_000000249_0001_42_55_H_._HEEHE_0633_0001_0000400008_0000001_0 (protein)
chain: DLERDAKHVVKAVAEAARLPSVEVEVHNGTIHVEIEGDDEAARRAKEALELFARALGIPIEVEIE
B24: il2ra_site1_3nfp_sap_6_mot_HHH_b2_00128_000000255_0001_39_54_H_._HHH_b2_00233_0001_0001400017_0000001_0_0001_af2pred_0001_af2pred_1 (protein)
chain: SSSSNEVARRVRELLREALKLREEGNPEEARKLLEEAKELAEEANSPNARLMVRHALELINSSSS

This assay deals with il2ra, P01589. Nature of the assay: yeast display titration.
In the case of B1, the “apparent Kd” value was “inactive: no binding seen”.

As for B2, the “apparent Kd” value is “inactive: no binding seen”.

B3: the “apparent Kd” value is “inactive: no binding seen”.

As to B4, the “apparent Kd” value was “inactive: no binding seen”.

On to B5, for which the “apparent Kd” value was “inactive: no binding seen”.

In the case of B6, the “apparent Kd” value is “inactive: no binding seen”.

With B7, the “apparent Kd” value was “inactive: no binding seen”.

For the molecule B8, the “apparent Kd” value was “inactive: no binding seen”.

With B9, the “apparent Kd” value is “inactive: no binding seen”.

Turning to B10, the “apparent Kd” value was “inactive: no binding seen”.

With B11, the “apparent Kd” value is “inactive: no binding seen”.

B12: the “apparent Kd” value was “inactive: no binding seen”.

Take B13: the “apparent Kd” value was “inactive: no binding seen”.

As to B14, the “apparent Kd” value was “inactive: no binding seen”.

Consider B15, for which the “apparent Kd” value is “inactive: no binding seen”.

In the case of B16, the “apparent Kd” value is “inactive: no binding seen”.

Turning to B17, the “apparent Kd” value is “inactive: no binding seen”.

Regarding B18, the “apparent Kd” value is “inactive: no binding seen”.

As to B19, the “apparent Kd” value is “inactive: no binding seen”.

For B20, the “apparent Kd” value was “inactive: no binding seen”.

Turning to B21, the “apparent Kd” value was “inactive: no binding seen”.

B22: the “apparent Kd” value was “inactive: no binding seen”.

In the case of B23, the “apparent Kd” value is “inactive: no binding seen”.

Take B24: the “apparent Kd” value is “inactive: no binding seen”.
